The target of this assay is paxillin (human (endogenous in HASM cells)) (UniProt P49023). As to the kind of experiment: co-IP; HASM cell extracts immunoprecipitated with paxillin antibody; membranes blotted for paxillin, stripped and reblotted for Plk1.

Sequences of proteins named here, by UniProt entry; tags and fusion partners are left off. A change or cut given only in a name is not applied to a line headed by its entry. A line that says so, or that is headed by a name, gives the form on record, which may keep a tag or linker.
paxillin (human (endogenous in HASM cells)) (P49023, form named): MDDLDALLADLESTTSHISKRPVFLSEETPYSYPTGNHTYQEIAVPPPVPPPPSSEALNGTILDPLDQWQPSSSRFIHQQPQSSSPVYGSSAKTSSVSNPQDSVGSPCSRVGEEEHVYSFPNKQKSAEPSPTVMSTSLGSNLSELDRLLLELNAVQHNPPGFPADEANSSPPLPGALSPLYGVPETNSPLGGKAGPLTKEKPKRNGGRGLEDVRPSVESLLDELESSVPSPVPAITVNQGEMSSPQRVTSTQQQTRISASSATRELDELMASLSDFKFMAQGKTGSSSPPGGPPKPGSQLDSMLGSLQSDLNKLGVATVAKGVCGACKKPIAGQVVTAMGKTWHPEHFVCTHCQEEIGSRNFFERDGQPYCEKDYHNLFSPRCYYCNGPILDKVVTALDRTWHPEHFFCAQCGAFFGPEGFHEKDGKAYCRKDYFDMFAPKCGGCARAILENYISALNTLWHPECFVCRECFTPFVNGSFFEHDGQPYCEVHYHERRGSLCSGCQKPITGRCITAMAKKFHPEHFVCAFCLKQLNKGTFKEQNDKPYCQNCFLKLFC
UniProt P53350: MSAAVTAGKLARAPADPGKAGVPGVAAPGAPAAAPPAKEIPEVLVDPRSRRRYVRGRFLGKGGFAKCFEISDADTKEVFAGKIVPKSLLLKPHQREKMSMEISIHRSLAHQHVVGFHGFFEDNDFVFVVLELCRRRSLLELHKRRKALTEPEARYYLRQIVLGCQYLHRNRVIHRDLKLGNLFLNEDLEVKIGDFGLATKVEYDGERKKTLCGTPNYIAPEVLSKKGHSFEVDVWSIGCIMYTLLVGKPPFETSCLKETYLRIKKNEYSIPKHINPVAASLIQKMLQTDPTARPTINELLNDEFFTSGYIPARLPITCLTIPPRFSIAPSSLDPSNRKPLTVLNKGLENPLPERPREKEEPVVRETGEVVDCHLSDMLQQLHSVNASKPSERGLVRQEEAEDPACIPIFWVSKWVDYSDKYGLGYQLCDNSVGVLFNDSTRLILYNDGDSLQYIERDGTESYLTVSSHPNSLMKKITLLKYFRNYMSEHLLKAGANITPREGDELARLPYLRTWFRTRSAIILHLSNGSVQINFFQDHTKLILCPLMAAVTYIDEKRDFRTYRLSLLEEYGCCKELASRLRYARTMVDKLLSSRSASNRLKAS

Binding data for one substance are collected here from paper PMC6525254.

These are yes or no findings as the source states them, for the method shown. Binding seen in cells or lysates may run through a third protein. Some binding calls cover weakened binding; strength is not graded here.

Consider “polo-like protein kinase 1 (Plk1) (from UniProt P53350 1-603)”, for which the binding result is on record as “binds”.
